In paper PMC10066299:
Results are given in words; binding and its absence hold for the method and conditions named. Some binding calls cover weakened binding; strength is not graded here. For some assays here: Tags and fused reporters may be left off the sequences shown.

Experiments:
IFT144 (WDR19) (human) = biological target: T1, IFT144 (WDR19) (human) (UniProt Q8NEZ3); assay: cryo-EM structure; IFT-A complex co-expressed in HEK293F and co-purified; composite map from the IFT-A and IFT-A (-IFT139) datasets; 20 mM Tris-HCl pH 8.0, 200 mM NaCl, 2 mM DTT, 2 mM FFC-8 added; both purified
T1 sequence: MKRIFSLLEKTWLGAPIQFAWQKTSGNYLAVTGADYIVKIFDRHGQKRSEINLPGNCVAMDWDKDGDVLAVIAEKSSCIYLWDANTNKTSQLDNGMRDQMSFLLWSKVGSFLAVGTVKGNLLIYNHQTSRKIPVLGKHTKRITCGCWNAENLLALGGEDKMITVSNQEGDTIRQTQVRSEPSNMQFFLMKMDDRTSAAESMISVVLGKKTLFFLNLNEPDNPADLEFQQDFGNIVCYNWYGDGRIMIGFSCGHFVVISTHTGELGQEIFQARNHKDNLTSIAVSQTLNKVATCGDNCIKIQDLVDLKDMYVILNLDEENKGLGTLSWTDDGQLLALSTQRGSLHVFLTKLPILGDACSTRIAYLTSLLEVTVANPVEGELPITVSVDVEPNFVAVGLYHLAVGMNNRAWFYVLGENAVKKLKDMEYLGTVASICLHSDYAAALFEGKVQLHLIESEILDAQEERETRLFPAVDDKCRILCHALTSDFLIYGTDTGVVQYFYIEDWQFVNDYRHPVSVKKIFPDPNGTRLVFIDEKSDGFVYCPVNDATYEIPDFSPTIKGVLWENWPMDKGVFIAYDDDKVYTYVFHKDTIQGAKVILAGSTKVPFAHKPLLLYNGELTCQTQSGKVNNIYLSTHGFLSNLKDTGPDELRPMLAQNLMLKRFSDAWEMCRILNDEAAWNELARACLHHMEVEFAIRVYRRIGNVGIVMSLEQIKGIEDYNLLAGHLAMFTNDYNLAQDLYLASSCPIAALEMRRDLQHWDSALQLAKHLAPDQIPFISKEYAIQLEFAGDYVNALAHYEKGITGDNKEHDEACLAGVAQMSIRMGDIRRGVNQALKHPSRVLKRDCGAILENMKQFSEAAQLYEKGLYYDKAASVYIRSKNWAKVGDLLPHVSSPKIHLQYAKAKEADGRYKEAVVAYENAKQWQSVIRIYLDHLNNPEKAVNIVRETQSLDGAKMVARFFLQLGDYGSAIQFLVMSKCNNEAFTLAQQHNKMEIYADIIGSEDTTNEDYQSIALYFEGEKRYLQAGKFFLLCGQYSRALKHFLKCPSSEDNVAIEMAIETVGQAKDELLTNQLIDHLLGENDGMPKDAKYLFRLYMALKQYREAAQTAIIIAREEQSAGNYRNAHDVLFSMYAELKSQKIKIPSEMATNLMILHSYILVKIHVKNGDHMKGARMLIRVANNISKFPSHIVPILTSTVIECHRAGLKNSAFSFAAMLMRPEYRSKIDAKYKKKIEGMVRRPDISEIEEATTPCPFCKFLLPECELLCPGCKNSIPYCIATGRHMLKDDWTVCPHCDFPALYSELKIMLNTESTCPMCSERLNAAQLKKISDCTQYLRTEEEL

[1] = biological target: T2, IFT139 (TTC21B/THM1) with N-terminal mCherry tag (human) (UniProt Q7Z4L5); assay: as above
T2 sequence: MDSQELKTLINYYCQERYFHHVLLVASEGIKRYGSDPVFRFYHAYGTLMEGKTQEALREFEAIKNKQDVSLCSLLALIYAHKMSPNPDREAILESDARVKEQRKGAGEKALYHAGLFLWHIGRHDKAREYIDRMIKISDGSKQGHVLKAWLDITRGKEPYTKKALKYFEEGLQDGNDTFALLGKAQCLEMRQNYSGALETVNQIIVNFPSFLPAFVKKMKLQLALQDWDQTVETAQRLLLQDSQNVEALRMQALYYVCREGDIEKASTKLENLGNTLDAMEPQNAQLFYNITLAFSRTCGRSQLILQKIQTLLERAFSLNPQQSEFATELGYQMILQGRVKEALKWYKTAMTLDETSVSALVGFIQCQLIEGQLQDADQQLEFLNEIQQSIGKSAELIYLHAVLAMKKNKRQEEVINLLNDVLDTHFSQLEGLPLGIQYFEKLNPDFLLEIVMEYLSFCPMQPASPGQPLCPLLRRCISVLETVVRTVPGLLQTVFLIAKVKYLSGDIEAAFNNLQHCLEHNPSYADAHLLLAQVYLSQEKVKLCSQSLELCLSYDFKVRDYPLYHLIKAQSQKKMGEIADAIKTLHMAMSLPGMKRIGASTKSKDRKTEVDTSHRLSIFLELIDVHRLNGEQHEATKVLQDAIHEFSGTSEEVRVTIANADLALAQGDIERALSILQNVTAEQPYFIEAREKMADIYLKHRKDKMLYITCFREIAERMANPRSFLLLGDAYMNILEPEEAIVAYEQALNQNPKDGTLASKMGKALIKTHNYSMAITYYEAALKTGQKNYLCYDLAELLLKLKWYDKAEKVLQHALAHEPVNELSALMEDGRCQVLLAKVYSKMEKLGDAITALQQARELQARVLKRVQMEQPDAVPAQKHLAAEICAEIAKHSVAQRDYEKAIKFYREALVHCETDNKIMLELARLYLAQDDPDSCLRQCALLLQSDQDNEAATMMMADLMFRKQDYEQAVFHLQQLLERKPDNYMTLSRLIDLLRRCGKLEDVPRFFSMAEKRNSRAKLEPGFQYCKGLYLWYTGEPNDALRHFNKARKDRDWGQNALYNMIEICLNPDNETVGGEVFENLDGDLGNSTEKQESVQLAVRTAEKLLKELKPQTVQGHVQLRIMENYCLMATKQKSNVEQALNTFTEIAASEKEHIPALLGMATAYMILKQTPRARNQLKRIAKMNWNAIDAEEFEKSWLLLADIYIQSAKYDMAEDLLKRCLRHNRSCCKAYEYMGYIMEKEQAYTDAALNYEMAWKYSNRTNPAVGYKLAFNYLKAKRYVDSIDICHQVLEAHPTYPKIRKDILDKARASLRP

B1: IFT121 (WDR35) (protein, UniProt Q9P2L0 1-1181)
chain: MFFYLSKKISIPNNVKLQCVSWNKEQGFIACGGEDGLLKVLKLETQTDDAKLRGLAAPSNLSMNQTLEGHSGSVQVVTWNEQYQKLTTSDENGLIIVWMLYKGSWIEEMINNRNKSVVRSMSWNADGQKICIVYEDGAVIVGSVDGNRIWGKDLKGIQLSHVTWSADSKVLLFGMANGEIHIYDNQGNFMIKMKLSCLVNVTGAISIAGIHWYHGTEGYVEPDCPCLAVCFDNGRCQIMRHENDQNPVLIDTGMYVVGIQWNHMGSVLAVAGFQKAAMQDKDVNIVQFYTPFGEHLGTLKVPGKEISALSWEGGGLKIALAVDSFIYFANIRPNYKWGYCSNTVVYAYTRPDRPEYCVVFWDTKNNEKYVKYVKGLISITTCGDFCILATKADENHPQEENEMETFGATFVLVLCNSIGTPLDPKYIDIVPLFVAMTKTHVIAASKEAFYTWQYRVAKKLTALEINQITRSRKEGRERIYHVDDTPSGSMDGVLDYSKTIQGTRDPICAITASDKILIVGRESGTIQRYSLPNVGLIQKYSLNCRAYQLSLNCNSSRLAIIDISGVLTFFDLDARVTDSTGQQVVGELLKLERRDVWDMKWAKDNPDLFAMMEKTRMYVFRNLDPEEPIQTSGYICNFEDLEIKSVLLDEILKDPEHPNKDYLINFEIRSLRDSRALIEKVGIKDASQFIEDNPHPRLWRLLAEAALQKLDLYTAEQAFVRCKDYQGIKFVKRLGKLLSESMKQAEVVGYFGRFEEAERTYLEMDRRDLAIGLRLKLGDWFRVLQLLKTGSGDADDSLLEQANNAIGDYFADRQKWLNAVQYYVQGRNQERLAECYYMLEDYEGLENLAISLPENHKLLPEIAQMFVRVGMCEQAVTAFLKCSQPKAAVDTCVHLNQWNKAVELAKNHSMKEIGSLLARYASHLLEKNKTLDAIELYRKANYFFDAAKLMFKIADEEAKKGSKPLRVKKLYVLSALLIEQYHEQMKNAQRGKVKGKSSEATSALAGLLEEEVLSTTDRFTDNAWRGAEAYHFFILAQRQLYEGCVDTALKTALHLKDYEDIIPPVEIYSLLALCACASRAFGTCSKAFIKLKSLETLSSEQKQQYEDLALEIFTKHTSKDNRKPELDSLMEGGEGKLPTCVATGSPITEYQFWMCSVCKHGVLAQEISHYSFCPLCHSPVG
binding (IFT144 (WDR19) (human)): binds
binding [1]: binds
